Results published in the supplement of paper PMC9135407.
Several values for one entry are separate records, joined by “and”; a condition that tells them apart may be missing. Equal entries are not always repeated. Structures can show the parent of a compound that is named as a salt. ± gives the standard deviation of the averaged measurements. The list shows a part of the results. Baselines shift from plate to plate; read single values as rough.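 Assay uses culture-activated primary human stellate myofibroblasts; lipid droplet recovery indicates inactivation. Measured: proportion of Hoechst-counted cells over a plate-specific Bodipy cutoff, duplicate wells, DMSO and nortriptyline as per-plate negative and positive controls. A hit scores, control-normalized, above the plate's top-tenth-percentile nortriptyline wells or ranks among its three best wells. Final well concentrations not reported.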

System: primary human hepatic stellate cells (donor 1)
Experiment: percent Bodipy-positive cells; higher = more lipid droplet accumulation
Details: 48 h
[1] = library stock concentration: 3.33 mM
[2] = library stock concentration: 10 mM
[3] = library stock concentration: 5.3 mM

SMILES: CN1CCC(CNc2ccc3ncc(-c4cccc(OC(F)(F)F)c4)n3n2)CC1 [SGI-1776 free base]
- percent Bodipy-positive cells [1]: 86.3 ± 2.3%
- percent Bodipy-positive cells [2]: 92.2 ± 8.3%

SMILES: COc1ccc(CNc2nc(N(CCO)CCO)nc3c2ncn3C(C)C)cc1 [Cdk2 Inhibitor III]
- percent Bodipy-positive cells [1]: 46.4 ± 7.6%

SMILES: NC(=O)c1ccc[n+]([C@@H]2O[C@H](COP(=O)([O-])OP(=O)(O)OC[C@H]3O[C@@H](n4cnc5c(N)ncnc54)[C@H](O)[C@@H]3O)[C@@H](O)[C@H]2O)c1 [Nadide]
- percent Bodipy-positive cells: 9.5 ± 2.2%
- percent Bodipy-positive cells (library stock concentration: 3 mM): 5.22 ± 0.28%

SMILES: C[C@H](NC(=O)CCc1nc2ccccc2c(=O)[nH]1)c1ccccc1
- percent Bodipy-positive cells [1]: 32.7 ± 1.2%
- percent Bodipy-positive cells [2]: 46.2 ± 18%

SMILES: CC(C)[C@H](NS(=O)(=O)c1ccc(-c2ccc(Br)cc2)cc1)C(=O)O
- percent Bodipy-positive cells [2]: 7.15 ± 4.3%

SMILES: NCC(=O)CCC(=O)O [5-Aminolevulinic acid HCl]
- percent Bodipy-positive cells [1]: 9.64 ± 1.8%
- percent Bodipy-positive cells [2]: 18.9 ± 2.6%

SMILES: NCC(=O)CCC(=O)O [Aminolevulinic Acid]
- percent Bodipy-positive cells [2]: 25.7 ± 4.6%

SMILES: NCC(=O)CCC(=O)O [Aminolevulinic acid hydrochloride]
- percent Bodipy-positive cells [2]: 41.3 ± 19%

SMILES: COc1cc2c(cc1OC)[C@@H]1Cc3ccc(OC)c(OC)c3CN1CC2 [Rotundine]
- percent Bodipy-positive cells [1]: 6.99 ± 3.3%
- percent Bodipy-positive cells [2]: 11.2 ± 2.2%

SMILES: O=C(CCCN1CCC(O)(c2ccc(Cl)cc2)CC1)c1ccc(F)cc1 [Haloperidol HCl]
- percent Bodipy-positive cells [3]: 40.4 ± 6.9%

SMILES: O=C(CCCN1CCC(O)(c2ccc(Cl)cc2)CC1)c1ccc(F)cc1 [Haloperidol hydrochloride]
- percent Bodipy-positive cells [2]: 53.7 ± 5.8%

SMILES: O=C(CCCN1CCC(O)(c2ccc(Cl)cc2)CC1)c1ccc(F)cc1 [Haloperidol]
- percent Bodipy-positive cells: 68.5 ± 11%
- percent Bodipy-positive cells [1]: 60.7 ± 9.6%
- percent Bodipy-positive cells [3]: 30.39 ± 0.15%

SMILES: O=C(O)C[C@H](O)C[C@H](O)/C=C/c1c(C2CC2)nc2ccccc2c1-c1ccc(F)cc1 [Pitavastatin Calcium]
- percent Bodipy-positive cells [1]: 37.7 ± 3.1%
- percent Bodipy-positive cells [2]: 39.5 ± 5.8%

SMILES: O=c1[nH]c2cc(Cl)ccc2c(O)c1-c1cccc(Oc2ccccc2)c1
- percent Bodipy-positive cells [2]: 19.8% and 6.88%

SMILES: Cc1ccc(C)c(OCCCC(C)(C)C(=O)O)c1 [Gemfibrozil]
- percent Bodipy-positive cells: 29.5 ± 4.7%
- percent Bodipy-positive cells [1]: 8.81 ± 2%
- percent Bodipy-positive cells (library stock concentration: 8 mM): 7.38% and 3.29%
- percent Bodipy-positive cells [2]: 18% and 16%

SMILES: Cc1ccc(C)c(OCCCC(C)(C)C(=O)O)c1
- percent Bodipy-positive cells [2]: 26.9 ± 4.2%

SMILES: C=CCN1CCc2c(cc(O)c(O)c2Cl)C(c2ccccc2)C1 (stereo not given)
- percent Bodipy-positive cells [2]: 55.4 ± 8.6%

SMILES: CCC(CC)CNc1cc(C(=O)NCCN(C)C)cc(S(=O)(=O)Nc2ccc(OC)cc2)c1
- percent Bodipy-positive cells [2]: 96.9 ± 2.8%

SMILES: CC(C)(C)c1cc(NC(=O)Nc2ccc(-c3cn4c(n3)sc3cc(OCCN5CCOCC5)ccc34)cc2)no1 [Quizartinib (AC220)]
- percent Bodipy-positive cells [2]: 82.8 ± 2.9%

SMILES: C[C@H]1COC2(CCN(c3nc(=O)c4cc(C(F)(F)F)cc([N+](=O)[O-])c4s3)CC2)O1 (racemic) [BTZ043 Racemate]
- percent Bodipy-positive cells [1]: 14.2 ± 8.9%
- percent Bodipy-positive cells [2]: 15.5 ± 4.3%

SMILES: CCCCCCCCCCCCCC=CC(O)C(CO)NC(=O)CCCCCCCCCCCCCCCCCCCCCCC (stereo not given) [Lignoceric Ceramide]
- percent Bodipy-positive cells (library stock concentration: 1 mM): 7.49 ± 4.7%

SMILES: COC(=O)[C@@H](N)Cc1ccc(O)c(O)c1 [L-3,4-Dihydroxyphenylalanine methyl ester hydrochloride]
- percent Bodipy-positive cells [2]: 35.6 ± 7.4%

SMILES: COc1ccc2c(c1)c(CC(=O)O)c(C)n2Cc1ccc(Cl)cc1 [1-(4-Chlorobenzyl)-5-methoxy-2-methylindole-3-acetic acid]
- percent Bodipy-positive cells [2]: 29.7 ± 0.49%

SMILES: C[C@]12CCC(=O)C=C1C=C[C@@H]1[C@@H]2CC[C@@]2(C)[C@H]1CC[C@@]21CCC(=O)O1 [Canrenone]
- percent Bodipy-positive cells (library stock concentration: 5.9 mM): 8.03% and 16.5%
- percent Bodipy-positive cells [2]: 35.9 ± 3%

SMILES: CCCCOc1cc(C(=O)NCCN(CC)CC)c2ccccc2n1.Cl [Dibucaine HCl]
- percent Bodipy-positive cells [2]: 92.4 ± 1.5%

SMILES: CC1(C)CC(=O)c2c(C(F)(F)F)nn(-c3ccc(C(N)=O)c(N[C@H]4CC[C@H](OC(=O)CN)CC4)c3)c2C1
- percent Bodipy-positive cells [1]: 74.9 ± 4.4%

SMILES: CC1(C)[C@@H](O)CC[C@]2(C)[C@H]3C(=O)C=C4[C@@H]5C[C@@](C)(C(=O)O)CC[C@]5(C)CC[C@@]4(C)[C@]3(C)CC[C@@H]12 [Enoxolone]
- percent Bodipy-positive cells [1]: 18.2 ± 7.8%
- percent Bodipy-positive cells [2]: 13.8% and 24.4%

SMILES: CC(N)(Cc1ccc(O)cc1)C(=O)O (racemic) [DL-alpha-Methyl-p-tyrosine]
- percent Bodipy-positive cells [2]: 64.6 ± 10%

SMILES: O=C(NCc1cccc(O)c1)Nc1nc(-c2ccncc2)cs1
- percent Bodipy-positive cells [1]: 82.7 ± 11%

SMILES: O=C1c2ccccc2-c2nc3nnnn3nc21 [PDK1/Akt/Flt Dual Pathway Inhibitor]
- percent Bodipy-positive cells [1]: 98.412 ± 0.036%

SMILES: COc1cc(C(=O)NC2CCN(C)CC2)ccc1Nc1ncc2c(n1)N(C1CCCC1)CC(F)(F)C(=O)N2C
- percent Bodipy-positive cells [1]: 74.6 ± 3.8%
- percent Bodipy-positive cells [2]: 97.4 ± 2.1%

SMILES: COC(=O)CCc1ccc(OCC(O)CNC(C)C)cc1 (stereo not given) [Esmolol]
- percent Bodipy-positive cells (library stock concentration: 6.8 mM): 6.47 ± 1.3%

SMILES: COC(=O)CCc1ccc(OCC(O)CNC(C)C)cc1 (stereo not given) [Esmolol HCl]
- percent Bodipy-positive cells [1]: 10.9 ± 0.32%
- percent Bodipy-positive cells [2]: 23.8 ± 5.1%

SMILES: COC(=O)CCc1ccc(OCC(O)CNC(C)C)cc1 (stereo not given)
- percent Bodipy-positive cells [2]: 9.597 ± 0.064%

SMILES: COCCOC(=O)C1=C(C)NC(C)=C(C(=O)OC(C)C)C1c1cccc([N+](=O)[O-])c1 (stereo not given)
- percent Bodipy-positive cells [2]: 19.1 ± 0.88%

SMILES: COCCOC(=O)C1=C(C)NC(C)=C(C(=O)OC(C)C)C1c1cccc([N+](=O)[O-])c1 (stereo not given) [Nimodipine]
- percent Bodipy-positive cells: 9.41 ± 1.8%
- percent Bodipy-positive cells [1]: 26.5 ± 0.96%
- percent Bodipy-positive cells (library stock concentration: 4.8 mM): 11.7% and 12.7%
- percent Bodipy-positive cells (library stock concentration: 12 mM): 20.1 ± 4.3%
